Data reported in article PMC3900104.
Substitutions are numbered along the chain they refer to. Results are given in words; binding and its absence hold for the method and conditions named. Binding seen in cells or lysates may run through a third protein. Some results given as binding are weak or reduced against the parent protein; the word gives no strength. For some assays here: Tags and fused reporters may be left off the sequences shown. One block for each binder: values may come before it.

Columns and labels:
[1] = target: T1, FLAG-tagged TRAK1 (trafficking-protein-Kinesin-binding-1), aa 2-953, in COS7 (human) (UniProt Q9UPV9); experiment: co-IP; as the FLAG IP of FLAG-TRAK1 plus Myc-DISC1 or Myc-DISC1-37W, but with high-speed lysates (Fig. S2)
T1 sequence: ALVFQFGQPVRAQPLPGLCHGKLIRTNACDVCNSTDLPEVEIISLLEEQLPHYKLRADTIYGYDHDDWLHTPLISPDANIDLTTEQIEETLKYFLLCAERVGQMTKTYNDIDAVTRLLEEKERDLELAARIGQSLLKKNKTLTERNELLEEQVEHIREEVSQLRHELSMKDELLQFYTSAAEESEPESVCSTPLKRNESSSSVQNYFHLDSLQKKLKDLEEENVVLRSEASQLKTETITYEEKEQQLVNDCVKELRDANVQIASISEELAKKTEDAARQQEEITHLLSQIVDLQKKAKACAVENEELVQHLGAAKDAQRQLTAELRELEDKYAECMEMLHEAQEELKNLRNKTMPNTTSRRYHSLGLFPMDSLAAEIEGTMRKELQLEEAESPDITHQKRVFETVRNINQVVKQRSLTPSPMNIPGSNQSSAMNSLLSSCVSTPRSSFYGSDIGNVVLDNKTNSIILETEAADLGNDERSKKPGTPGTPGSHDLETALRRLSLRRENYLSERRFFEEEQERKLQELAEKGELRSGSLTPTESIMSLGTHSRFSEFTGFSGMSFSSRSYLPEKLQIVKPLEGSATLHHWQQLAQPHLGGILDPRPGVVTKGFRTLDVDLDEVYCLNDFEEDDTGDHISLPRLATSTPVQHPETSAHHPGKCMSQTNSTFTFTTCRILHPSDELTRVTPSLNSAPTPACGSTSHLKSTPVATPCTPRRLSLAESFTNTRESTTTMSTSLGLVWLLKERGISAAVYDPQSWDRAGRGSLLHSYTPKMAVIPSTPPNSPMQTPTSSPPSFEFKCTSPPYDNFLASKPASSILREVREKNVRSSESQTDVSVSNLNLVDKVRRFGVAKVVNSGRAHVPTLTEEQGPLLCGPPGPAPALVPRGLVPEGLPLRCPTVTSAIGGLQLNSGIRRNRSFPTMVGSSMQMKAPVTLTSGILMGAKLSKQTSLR

[2] = target: T2, endogenous TRAK1 of HEK293 cells (human (endogenous in HEK293)) (UniProt Q9UPV9); experiment: co-IP; non-transfected HEK293 or SH-SY5Y cells; more stringent protocol, lysates centrifuged at 100 000g; IP with TRAK1 antibody; identity of the DISC1 band confirmed by DISC1 siRNA in HEK293
T2 sequence: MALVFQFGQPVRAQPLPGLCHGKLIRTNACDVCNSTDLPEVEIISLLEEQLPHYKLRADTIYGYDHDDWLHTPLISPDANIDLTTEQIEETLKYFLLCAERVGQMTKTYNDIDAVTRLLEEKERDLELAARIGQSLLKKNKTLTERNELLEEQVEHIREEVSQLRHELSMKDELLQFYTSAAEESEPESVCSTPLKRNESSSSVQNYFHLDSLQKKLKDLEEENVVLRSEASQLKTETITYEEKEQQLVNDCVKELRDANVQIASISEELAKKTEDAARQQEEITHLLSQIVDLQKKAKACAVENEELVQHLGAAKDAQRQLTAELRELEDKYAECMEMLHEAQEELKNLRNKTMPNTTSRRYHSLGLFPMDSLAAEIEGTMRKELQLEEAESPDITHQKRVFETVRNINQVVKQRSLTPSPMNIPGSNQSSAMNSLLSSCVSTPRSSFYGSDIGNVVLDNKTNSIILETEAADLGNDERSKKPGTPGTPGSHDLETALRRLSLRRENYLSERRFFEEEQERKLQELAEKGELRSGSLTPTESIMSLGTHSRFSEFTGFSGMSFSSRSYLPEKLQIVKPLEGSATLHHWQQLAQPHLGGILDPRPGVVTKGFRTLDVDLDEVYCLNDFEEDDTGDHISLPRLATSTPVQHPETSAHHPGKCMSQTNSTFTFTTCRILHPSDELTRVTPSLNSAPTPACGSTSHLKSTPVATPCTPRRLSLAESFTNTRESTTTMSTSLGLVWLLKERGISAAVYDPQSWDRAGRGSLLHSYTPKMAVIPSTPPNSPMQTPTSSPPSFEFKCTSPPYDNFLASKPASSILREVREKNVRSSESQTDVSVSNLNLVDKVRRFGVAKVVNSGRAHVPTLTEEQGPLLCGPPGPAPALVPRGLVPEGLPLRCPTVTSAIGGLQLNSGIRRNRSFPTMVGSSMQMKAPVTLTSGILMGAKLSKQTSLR

[3] = target: T2, endogenous TRAK1 of HEK293 cells (human (endogenous in HEK293)); experiment: co-IP; non-transfected HEK293 or SH-SY5Y cells; IP with TRAK1 antibody; endogenous proteins
[4] = target: T3, endogenous TRAK1 of SH-SY5Y cells (human (endogenous in SH-SY5Y)) (UniProt Q9UPV9); experiment: co-IP; non-transfected HEK293 or SH-SY5Y cells; more stringent protocol, lysates centrifuged at 100 000g; IP with TRAK1 antibody; identity of the DISC1 band confirmed by DISC1 siRNA in HEK293
T3 sequence: T2 sequence

[5] = target: T3, endogenous TRAK1 of SH-SY5Y cells (human (endogenous in SH-SY5Y)); experiment: co-IP; non-transfected HEK293 or SH-SY5Y cells; IP with TRAK1 antibody; endogenous proteins

binding [1]: binds
B1: Myc-DISC1-37W (protein, UniProt Q9NRI5 1-854)
chain: MPGGGPQGAPAAAGGGGVSHRAGSRDCLPPAACFRRWRLARRPGYMRSSTGPGIGFLSPAVGTLFRFPGGVSGEESHHSESRARQCGLDSRGLLVRSPVSKSAAAPTVTSVRGTSAHFGIQLRGGTRLPDRLSWPCGPGSAGWQQEFAAMDSSETLDASWEAACSDGARRVRAAGSLPSAELSSNSCSPGCGPEVPPTPPGSHSAFTSSFSFIRLSLGSAGERGEAEGCPPSREAESHCQSPQEMGAKAASLDGPHEDPRCLSRPFSLLATRVSADLAQAARNSSRPERDMHSLPDMDPGSSSSLDPSLAGCGGDGSSGSGDAHSWDTLLRKWEPVLRDCLLRNRRQMEVISLRLKLQKLQEDAVENDDYDKAETLQQRLEDLEQEKISLHFQLPSRQPALSSFLGHLAAQVQAALRRGATQQASGDDTHTPLRMEPRLLEPTAQDSLHVSITRRDWLLQEKQQLQKEIEALQARMFVLEAKDQQLRREIEEQEQQLQWQGCDLTPLVGQLSLGQLQEVSKALQDTLASAGQIPFHAEPPETIRSLQERIKSLNLSLKEITTKVCMSEKFCSTLRKKVNDIETQLPALLEAKMHAISGNHFWTAKDLTEEIRSLTSEREGLEGLLSKLLVLSSRNVKKLGSVKEDYNRLRREVEHQETAYETSVKENTMKYMETLKNKLCSCKCPLLGKVWEADLEACRLLIQSLQLQEARGSLSVEDERQMDDLEGAAPPIPPRLHSEDKRKTPLKVLEEWKTHLIPSLHCAGGEQKEESYILSAELGEKCEDIGKKLLYLEDQLHTAIHSHDEDLIQSLRRELQMVKETLQAMILQLQPAKEAGEREAAASCMTAGVHEAQA

binding [2]: binds | binding [3]: binds
B2: endogenous 100 kDa full-length DISC1 of HEK293 cells (protein, UniProt Q9NRI5 1-854)
chain: B1 chain with W37R

binding [4]: binds | binding [5]: binds
B3: endogenous 100 kDa DISC1 of SH-SY5Y cells (protein, UniProt Q9NRI5 1-854)
chain: B1 chain with W37R
